Measured values reported in article PMC5811549.
These are yes or no findings as the source states them, for the method shown. Some results given as binding are weak or reduced against the parent protein; the word gives no strength.

Protein sequences, listed by entry. Tags and fused reporters are not part of them. Lines headed by an entry give the natural chain unless they say otherwise; changes in a name come on top. Chains listed by the source or under a name are the forms on record and can include a tag or linker. Residues count along the entry.
UniProt P02454: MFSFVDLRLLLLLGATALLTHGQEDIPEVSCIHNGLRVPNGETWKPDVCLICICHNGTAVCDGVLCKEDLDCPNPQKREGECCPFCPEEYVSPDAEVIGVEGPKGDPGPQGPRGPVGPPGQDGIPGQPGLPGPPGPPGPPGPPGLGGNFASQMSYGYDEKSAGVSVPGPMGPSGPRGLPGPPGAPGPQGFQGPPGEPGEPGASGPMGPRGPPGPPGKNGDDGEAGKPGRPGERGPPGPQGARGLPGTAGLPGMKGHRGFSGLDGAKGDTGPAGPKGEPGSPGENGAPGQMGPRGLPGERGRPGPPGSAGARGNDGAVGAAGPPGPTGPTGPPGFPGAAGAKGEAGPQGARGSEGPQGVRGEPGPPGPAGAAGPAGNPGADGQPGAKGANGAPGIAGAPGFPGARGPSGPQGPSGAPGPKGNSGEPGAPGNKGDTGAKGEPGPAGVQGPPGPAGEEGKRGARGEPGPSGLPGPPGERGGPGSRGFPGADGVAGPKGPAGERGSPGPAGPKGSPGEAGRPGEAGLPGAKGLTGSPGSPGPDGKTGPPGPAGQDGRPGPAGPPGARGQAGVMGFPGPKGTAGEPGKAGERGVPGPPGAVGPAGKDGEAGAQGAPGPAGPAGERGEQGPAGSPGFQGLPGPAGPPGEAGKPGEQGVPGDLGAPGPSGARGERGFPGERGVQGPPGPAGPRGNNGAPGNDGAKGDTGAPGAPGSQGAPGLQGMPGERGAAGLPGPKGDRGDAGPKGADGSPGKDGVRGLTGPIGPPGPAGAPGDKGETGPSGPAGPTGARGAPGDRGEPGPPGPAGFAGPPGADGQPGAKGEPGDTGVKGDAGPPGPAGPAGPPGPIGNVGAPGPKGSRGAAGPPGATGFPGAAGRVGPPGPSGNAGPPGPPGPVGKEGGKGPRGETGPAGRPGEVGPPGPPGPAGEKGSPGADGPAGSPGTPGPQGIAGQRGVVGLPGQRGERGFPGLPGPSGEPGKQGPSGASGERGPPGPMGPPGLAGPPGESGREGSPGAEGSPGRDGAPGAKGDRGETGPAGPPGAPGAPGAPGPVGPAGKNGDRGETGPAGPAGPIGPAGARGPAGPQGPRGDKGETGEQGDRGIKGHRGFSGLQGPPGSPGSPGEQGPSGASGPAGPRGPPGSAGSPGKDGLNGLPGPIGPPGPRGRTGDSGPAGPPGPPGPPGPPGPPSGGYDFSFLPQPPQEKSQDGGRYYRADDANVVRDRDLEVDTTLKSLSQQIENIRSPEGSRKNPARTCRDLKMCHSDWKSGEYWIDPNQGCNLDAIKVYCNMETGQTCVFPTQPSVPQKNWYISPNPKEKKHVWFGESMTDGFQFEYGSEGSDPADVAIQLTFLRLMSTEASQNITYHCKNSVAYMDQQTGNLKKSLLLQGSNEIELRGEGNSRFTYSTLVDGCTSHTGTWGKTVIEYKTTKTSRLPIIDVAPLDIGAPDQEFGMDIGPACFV
UniProt P02466: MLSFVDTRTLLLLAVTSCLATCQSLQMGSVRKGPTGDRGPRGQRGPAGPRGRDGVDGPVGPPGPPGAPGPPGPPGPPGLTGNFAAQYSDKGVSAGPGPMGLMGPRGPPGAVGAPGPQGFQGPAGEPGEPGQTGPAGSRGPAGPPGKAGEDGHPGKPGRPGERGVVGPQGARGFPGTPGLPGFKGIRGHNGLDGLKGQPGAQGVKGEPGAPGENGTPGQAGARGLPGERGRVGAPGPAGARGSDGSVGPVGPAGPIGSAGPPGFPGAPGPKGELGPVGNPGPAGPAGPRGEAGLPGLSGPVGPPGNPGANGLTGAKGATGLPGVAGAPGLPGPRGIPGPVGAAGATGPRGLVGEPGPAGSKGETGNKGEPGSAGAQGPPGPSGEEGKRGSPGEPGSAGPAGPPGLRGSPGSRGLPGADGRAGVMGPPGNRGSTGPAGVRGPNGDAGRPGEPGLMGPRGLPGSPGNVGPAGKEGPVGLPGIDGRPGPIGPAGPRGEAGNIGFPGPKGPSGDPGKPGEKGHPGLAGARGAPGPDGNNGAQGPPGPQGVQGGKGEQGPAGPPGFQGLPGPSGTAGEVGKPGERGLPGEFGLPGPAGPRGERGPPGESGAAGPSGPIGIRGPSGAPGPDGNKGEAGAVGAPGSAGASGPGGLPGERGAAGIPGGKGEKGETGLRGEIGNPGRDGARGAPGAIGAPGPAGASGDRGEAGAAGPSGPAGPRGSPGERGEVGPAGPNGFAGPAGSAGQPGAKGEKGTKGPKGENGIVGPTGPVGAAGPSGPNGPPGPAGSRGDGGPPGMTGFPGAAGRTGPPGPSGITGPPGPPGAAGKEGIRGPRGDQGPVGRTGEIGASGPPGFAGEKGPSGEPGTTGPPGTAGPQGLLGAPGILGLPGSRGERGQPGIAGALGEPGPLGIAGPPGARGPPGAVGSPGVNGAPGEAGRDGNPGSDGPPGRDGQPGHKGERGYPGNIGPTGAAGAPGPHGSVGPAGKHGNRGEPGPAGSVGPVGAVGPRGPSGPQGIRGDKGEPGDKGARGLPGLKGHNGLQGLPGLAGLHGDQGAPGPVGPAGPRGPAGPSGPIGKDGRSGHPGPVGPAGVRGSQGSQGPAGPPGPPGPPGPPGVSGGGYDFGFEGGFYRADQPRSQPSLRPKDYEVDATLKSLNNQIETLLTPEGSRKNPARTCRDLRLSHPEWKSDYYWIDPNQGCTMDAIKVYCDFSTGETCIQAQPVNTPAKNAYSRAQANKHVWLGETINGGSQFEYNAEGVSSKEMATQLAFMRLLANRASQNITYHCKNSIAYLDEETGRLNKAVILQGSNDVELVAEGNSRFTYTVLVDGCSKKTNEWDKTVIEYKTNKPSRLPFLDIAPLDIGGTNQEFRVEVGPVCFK
GST-tagged integrin α2-I domain, wild type (P17301, residues 169-365): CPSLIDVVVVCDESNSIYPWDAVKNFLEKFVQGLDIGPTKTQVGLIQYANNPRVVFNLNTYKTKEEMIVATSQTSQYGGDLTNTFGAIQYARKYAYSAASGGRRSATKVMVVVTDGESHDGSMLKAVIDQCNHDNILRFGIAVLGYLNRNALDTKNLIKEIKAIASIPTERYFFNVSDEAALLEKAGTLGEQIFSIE
GST-tagged integrin α2-I domain E152A mutant (P17301, form named): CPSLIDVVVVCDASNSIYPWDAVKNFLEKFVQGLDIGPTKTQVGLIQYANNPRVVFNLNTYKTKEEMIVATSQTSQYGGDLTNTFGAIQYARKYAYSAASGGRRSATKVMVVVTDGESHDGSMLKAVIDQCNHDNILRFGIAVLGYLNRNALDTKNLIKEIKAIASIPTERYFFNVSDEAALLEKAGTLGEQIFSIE

Target: rat tail collagen I (rat) (UniProt P02454+P02466)
Experiment: ELISA; solid-phase binding assay; collagen coated on a 96-well plate and blocked with BSA; GST-tagged I domain serially diluted in TBS, 0.05% Tween-20, 10 mg/ml BSA, 1 mM MgCl2; 1.5 h at RT; detected with anti-GST HRP conjugate; both purified

binding | Substance
binds | GST-tagged integrin α2-I domain E152A mutant (from UniProt P17301 169-365) (domain or fragment)
binds | GST-tagged integrin α2-I domain, wild type (from UniProt P17301 169-365) (domain or fragment)
